Measurements: the supplement of paper PMC10849652
The list shows a part of the results.

Protein sequences, listed by entry. Tags and fused reporters are not part of them. Lines headed by an entry give the natural chain unless they say otherwise; changes in a name come on top.
UniProt Q8TDQ7: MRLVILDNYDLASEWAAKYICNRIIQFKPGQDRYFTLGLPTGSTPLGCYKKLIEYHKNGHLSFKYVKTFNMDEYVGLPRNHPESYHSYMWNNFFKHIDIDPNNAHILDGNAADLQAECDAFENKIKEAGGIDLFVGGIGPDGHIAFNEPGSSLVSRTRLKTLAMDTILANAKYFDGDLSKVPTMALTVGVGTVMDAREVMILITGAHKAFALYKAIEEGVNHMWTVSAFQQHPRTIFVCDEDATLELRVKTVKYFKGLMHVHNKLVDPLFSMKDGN
UniProt Q03113, whole entry, looked up: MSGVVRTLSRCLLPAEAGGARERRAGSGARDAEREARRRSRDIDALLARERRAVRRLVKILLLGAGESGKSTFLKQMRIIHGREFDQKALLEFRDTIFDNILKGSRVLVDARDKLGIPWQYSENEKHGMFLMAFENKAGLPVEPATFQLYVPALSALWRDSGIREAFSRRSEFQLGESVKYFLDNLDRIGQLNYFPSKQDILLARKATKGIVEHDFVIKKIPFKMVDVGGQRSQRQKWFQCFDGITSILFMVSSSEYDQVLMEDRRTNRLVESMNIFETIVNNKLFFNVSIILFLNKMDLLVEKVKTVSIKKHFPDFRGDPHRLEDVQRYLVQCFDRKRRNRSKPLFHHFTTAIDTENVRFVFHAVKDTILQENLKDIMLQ
UniProt Q08379: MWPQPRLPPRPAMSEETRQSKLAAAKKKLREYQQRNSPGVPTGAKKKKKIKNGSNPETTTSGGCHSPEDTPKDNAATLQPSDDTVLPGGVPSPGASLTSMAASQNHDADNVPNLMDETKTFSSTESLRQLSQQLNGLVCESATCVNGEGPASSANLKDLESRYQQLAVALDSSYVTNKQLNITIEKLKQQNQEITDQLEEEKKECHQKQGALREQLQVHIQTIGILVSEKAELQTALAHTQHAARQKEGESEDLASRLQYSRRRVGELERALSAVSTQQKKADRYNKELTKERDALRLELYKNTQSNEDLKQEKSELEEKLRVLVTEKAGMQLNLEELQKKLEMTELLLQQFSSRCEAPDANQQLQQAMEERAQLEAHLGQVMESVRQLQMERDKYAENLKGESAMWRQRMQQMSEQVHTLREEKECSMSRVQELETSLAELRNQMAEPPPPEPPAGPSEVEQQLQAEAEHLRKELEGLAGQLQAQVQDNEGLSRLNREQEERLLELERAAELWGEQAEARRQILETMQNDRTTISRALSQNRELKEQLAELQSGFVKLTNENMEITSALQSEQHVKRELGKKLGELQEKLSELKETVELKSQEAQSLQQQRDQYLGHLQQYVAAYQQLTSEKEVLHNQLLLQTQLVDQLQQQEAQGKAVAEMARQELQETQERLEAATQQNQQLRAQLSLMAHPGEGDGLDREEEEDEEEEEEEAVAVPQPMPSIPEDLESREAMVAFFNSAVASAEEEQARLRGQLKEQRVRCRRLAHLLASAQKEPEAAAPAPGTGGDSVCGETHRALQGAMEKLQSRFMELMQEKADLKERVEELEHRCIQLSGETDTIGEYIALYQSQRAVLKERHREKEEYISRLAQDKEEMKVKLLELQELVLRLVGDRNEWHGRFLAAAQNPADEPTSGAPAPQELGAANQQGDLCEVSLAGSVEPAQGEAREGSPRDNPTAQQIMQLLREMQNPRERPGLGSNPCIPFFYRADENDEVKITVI
UniProt P36959: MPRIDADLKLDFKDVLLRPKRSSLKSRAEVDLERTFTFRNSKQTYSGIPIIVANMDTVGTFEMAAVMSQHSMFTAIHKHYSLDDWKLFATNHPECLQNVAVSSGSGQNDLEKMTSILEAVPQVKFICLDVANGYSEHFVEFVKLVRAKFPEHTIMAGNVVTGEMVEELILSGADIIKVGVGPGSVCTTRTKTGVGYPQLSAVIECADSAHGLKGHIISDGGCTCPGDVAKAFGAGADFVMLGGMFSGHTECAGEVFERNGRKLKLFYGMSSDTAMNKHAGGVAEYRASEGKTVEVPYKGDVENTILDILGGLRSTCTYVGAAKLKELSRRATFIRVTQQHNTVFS
UniProt Q9BXV9: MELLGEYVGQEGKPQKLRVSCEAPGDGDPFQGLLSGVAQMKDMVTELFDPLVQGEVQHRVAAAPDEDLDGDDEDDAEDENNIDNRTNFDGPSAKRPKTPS
UniProt O75496: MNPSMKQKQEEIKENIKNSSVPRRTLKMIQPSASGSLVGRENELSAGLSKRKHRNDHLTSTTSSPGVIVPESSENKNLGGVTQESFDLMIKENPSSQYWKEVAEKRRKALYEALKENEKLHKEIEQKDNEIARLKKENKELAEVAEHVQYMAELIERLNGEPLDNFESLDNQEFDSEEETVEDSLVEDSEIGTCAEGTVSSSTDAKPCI
UniProt Q04760: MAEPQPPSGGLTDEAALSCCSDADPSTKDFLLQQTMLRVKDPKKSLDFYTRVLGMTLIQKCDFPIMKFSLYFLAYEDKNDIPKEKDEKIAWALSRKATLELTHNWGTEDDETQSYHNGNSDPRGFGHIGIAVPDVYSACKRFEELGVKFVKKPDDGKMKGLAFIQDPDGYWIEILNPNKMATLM
UniProt Q13439: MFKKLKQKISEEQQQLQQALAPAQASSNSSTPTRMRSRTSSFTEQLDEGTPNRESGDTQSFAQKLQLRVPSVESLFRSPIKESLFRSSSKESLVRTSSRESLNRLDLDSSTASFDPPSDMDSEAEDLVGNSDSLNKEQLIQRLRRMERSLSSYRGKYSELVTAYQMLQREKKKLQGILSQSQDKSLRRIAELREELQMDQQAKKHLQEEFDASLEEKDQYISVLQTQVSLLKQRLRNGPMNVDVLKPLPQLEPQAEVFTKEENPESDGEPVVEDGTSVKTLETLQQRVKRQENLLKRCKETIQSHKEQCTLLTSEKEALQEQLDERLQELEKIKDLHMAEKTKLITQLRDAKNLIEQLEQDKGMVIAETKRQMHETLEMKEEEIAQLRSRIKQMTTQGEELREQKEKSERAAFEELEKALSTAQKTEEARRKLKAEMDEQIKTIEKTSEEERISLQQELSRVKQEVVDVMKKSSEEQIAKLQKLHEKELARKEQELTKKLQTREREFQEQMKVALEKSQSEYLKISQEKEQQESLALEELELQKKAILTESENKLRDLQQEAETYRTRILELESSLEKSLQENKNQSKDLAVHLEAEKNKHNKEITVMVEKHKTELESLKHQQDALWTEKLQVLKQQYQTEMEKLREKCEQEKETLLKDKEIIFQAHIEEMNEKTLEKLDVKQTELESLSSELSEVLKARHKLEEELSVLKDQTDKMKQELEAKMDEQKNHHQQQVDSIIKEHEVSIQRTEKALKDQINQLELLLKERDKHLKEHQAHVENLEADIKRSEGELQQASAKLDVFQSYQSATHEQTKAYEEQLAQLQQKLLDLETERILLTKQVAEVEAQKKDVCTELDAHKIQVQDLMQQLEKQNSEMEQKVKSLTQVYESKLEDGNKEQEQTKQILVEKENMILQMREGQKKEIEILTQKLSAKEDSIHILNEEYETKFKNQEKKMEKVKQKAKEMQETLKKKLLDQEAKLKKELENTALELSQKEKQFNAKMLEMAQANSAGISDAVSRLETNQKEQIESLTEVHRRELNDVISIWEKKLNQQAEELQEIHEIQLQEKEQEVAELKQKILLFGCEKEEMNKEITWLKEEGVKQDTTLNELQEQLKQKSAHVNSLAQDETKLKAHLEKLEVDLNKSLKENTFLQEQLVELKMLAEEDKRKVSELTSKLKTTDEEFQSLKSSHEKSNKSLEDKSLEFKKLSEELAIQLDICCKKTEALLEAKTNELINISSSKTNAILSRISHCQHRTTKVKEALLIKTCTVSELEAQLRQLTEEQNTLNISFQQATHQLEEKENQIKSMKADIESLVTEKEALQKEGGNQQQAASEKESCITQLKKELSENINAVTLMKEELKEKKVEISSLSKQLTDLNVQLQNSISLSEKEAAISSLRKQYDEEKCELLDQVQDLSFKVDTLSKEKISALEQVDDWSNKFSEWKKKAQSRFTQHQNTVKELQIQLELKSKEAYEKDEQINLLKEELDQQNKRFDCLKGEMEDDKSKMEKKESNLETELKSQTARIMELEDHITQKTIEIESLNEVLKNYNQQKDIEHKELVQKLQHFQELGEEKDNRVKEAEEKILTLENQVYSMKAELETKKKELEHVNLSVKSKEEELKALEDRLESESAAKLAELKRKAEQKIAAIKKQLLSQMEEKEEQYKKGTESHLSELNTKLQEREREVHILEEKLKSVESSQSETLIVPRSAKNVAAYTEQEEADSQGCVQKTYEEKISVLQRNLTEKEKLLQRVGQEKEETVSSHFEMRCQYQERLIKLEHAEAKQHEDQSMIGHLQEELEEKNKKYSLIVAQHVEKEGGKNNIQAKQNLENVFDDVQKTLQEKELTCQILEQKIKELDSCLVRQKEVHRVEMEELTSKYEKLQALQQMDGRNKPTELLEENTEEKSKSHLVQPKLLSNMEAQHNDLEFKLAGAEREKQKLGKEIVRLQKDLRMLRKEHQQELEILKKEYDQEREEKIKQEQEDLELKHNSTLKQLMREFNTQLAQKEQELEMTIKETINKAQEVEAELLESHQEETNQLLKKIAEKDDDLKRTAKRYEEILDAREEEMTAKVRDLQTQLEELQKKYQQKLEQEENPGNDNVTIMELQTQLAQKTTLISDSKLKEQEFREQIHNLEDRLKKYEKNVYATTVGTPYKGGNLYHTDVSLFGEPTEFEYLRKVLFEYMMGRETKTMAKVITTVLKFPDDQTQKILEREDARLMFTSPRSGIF
UniProt O95249: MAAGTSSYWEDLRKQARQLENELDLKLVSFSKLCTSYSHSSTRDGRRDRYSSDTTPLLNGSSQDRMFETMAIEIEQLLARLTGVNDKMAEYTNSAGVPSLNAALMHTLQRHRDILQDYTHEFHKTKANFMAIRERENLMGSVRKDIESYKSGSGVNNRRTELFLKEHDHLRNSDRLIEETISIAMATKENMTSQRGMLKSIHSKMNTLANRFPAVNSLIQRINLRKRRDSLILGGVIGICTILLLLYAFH
UniProt Q9NWU2, whole entry, looked up: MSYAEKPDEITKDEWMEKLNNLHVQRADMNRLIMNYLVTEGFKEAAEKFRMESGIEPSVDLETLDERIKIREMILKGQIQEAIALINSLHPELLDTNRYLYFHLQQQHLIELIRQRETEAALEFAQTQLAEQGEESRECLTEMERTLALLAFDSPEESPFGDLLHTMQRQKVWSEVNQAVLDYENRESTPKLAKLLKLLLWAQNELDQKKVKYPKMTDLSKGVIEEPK
UniProt Q9BRX5: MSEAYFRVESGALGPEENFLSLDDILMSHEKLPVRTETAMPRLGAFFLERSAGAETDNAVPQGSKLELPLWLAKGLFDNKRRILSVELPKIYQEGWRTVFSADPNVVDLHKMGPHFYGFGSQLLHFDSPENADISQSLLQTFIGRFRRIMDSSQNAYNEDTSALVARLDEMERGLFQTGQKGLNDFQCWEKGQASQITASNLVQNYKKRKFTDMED
UniProt B7ZAQ6: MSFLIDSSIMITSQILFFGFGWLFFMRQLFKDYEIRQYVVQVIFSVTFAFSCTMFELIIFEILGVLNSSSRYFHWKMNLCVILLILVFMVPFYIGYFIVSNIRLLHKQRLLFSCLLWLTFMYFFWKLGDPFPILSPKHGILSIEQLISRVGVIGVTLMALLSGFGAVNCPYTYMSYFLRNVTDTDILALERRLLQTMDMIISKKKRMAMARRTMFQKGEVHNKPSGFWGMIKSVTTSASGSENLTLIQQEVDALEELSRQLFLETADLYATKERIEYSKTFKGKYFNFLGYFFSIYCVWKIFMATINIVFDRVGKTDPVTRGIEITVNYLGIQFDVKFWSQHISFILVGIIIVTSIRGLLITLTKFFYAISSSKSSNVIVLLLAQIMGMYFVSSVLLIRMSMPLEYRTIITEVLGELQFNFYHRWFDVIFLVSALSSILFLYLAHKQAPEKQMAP
UniProt Q9UBQ7: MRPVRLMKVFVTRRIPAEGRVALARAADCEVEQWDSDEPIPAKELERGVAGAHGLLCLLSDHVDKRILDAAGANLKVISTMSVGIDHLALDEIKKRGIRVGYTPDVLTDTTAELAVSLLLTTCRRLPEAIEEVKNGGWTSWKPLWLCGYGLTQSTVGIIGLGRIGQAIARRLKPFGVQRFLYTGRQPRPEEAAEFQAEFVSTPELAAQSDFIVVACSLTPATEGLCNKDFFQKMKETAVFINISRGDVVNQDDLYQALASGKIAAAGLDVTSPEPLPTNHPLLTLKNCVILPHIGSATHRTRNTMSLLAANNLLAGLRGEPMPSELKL
UniProt O14908: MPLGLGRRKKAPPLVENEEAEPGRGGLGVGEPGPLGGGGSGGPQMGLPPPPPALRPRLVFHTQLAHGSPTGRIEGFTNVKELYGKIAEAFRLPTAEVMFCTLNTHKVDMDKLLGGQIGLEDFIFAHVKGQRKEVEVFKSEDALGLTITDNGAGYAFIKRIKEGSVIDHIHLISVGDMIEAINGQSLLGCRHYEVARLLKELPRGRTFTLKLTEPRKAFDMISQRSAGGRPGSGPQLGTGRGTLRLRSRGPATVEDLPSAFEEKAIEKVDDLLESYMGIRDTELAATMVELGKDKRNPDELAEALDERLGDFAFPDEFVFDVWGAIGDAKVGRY

How the values were obtained:
Assay in all cases: log2 fold change, soluble protein after heating vs DMSO (PISA); higher = thermal stabilisation; K562 cells, 10 uM, 30 min; active = over 0.2 and 3.5 SD of the protein, either way, in both replicates (recomputed)
[1] = compound: CS(=O)(=O)c1ccc(-c2cnc(N)c(C(=O)Nc3ccccc3)n2)cc1
Summary of the method: (§1)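 Aliquots of K562 cells (2×10^6 cells/mL) treated with 10 μM compound for 30 min were heated for 3 min over 48°C-58°C. After pooling and extraction in PBS with 0.5% NP-40 at 4°C, soluble protein from a 21,000xg, 90 min spin was quantified by TMTpro 16plex LC-MS/MS with channel sums equalised. Thermal stability is expressed against control samples, from duplicates, as a log2 fold change.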

crizotinib = compound: C[C@@H](Oc1cc(-c2cnn(C3CCNCC3)c2)cnc1N)c1c(Cl)ccc(F)c1Cl [crizotinib]
Summary of the method: as §1

[2] = compound: C[C@@H]1COCCN1C2=NC(=NC(=C2)C3(CC3)S(=O)(=O)C)C4=C5C=CNC5=CC=C4
Summary of the method: as §1

[3] = compound: C[C@H](C1=CC=C(C=C1)C(=O)NC2=C3C=CNC3=NC=C2)N
Summary of the method: as §1

duvelisib = compound: C[C@H](Nc1ncnc2nc[nH]c12)c1cc2cccc(Cl)c2c(=O)n1-c1ccccc1 [duvelisib]
Summary of the method: as §1

gandotinib = compound: Cc1cc(Nc2cc(CN3CCOCC3)c3nc(C)c(Cc4ccc(Cl)cc4F)n3n2)n[nH]1 [gandotinib]
Summary of the method: as §1

tozasertib = compound: Cc1cc(Nc2cc(N3CCN(C)CC3)nc(Sc3ccc(NC(=O)C4CC4)cc3)n2)n[nH]1 [tozasertib]
Summary of the method: as §1

[4] = compound: Cc1cc(SCc2sc(-c3ccc(C(F)(F)F)cc3)nc2C)ccc1OCC(=O)O
Summary of the method: as §1

doramapimod = compound: Cc1ccc(-n2nc(C(C)(C)C)cc2NC(=O)Nc2ccc(OCCN3CCOCC3)c3ccccc23)cc1 [doramapimod]
Summary of the method: as §1

ispinesib = compound: Cc1ccc(C(=O)N(CCCN)[C@@H](c2nc3cc(Cl)ccc3c(=O)n2Cc2ccccc2)C(C)C)cc1 [ispinesib]
Summary of the method: as §1

Measured: log2 fold change

GMPPA (UniProt Q96IJ6)
inactive: [1] 0.017 | crizotinib 0.02 | [2] 0.092 | [3] -0.039 | duvelisib 0.076 | gandotinib -0.046 | tozasertib -0.034 | [4] 0.039 | doramapimod -0.039 | ispinesib 0.05

GNPDA2 (UniProt Q8TDQ7)
inactive: [1] 0.016 | crizotinib 0.036 | [2] 0.036 | [3] -0.141 | duvelisib 0 | gandotinib 0.034 | tozasertib 0.065 | [4] 0.003 | doramapimod -0.025 | ispinesib -0.014

GNB1 (UniProt P62873)
inactive: [1] 0.007 | crizotinib 0.099 | [2] 0.013 | [3] -0.124 | duvelisib 0.095 | gandotinib -0.068 | tozasertib 0.016 | [4] 0.113 | doramapimod -0.004 | ispinesib 0.112

GPR107 (UniProt Q5VW38)
inactive: [1] -0.023 | crizotinib 0.041 | [2] -0.025 | [3] -0.038 | duvelisib 0 | gandotinib 0.016 | tozasertib 0.028 | [4] -0.027 | doramapimod -0.005 | ispinesib 0.028

GINS1 (UniProt Q14691)
inactive: [1] -0.004 | crizotinib -0.033 | [2] -0.047 | [3] 0.005 | duvelisib 0.015 | gandotinib 0.027 | tozasertib 0.009 | [4] -0.037 | doramapimod 0.04 | ispinesib 0.05

GPI (UniProt P06744)
inactive: [1] 0 | crizotinib 0.032 | [2] 0.025 | [3] -0.098 | duvelisib 0.011 | gandotinib -0.031 | tozasertib -0.002 | [4] -0.003 | doramapimod -0.034 | ispinesib 0.042

GNA12 (UniProt Q03113)
inactive: [1] -0.077 | crizotinib -0.034 | [2] 0.124 | [3] 0.199 | duvelisib 0.236 | gandotinib -0.407 | tozasertib -0.052 | [4] -0.11 | doramapimod 0.142

GPN3 isoform 2 (UniProt Q9UHW5)
inactive: [1] -0.062 | crizotinib 0.01 | [2] 0.07 | [3] 0.066 | duvelisib 0.05 | gandotinib -0.021 | tozasertib 0 | [4] -0.005 | doramapimod 0 | ispinesib -0.012

GOLGA2 (UniProt Q08379)
inactive: [1] -0.037 | crizotinib 0.064 | [2] -0.085 | [3] 0.236 | duvelisib -0.083 | gandotinib 0.057 | tozasertib 0.059 | [4] 0.062 | doramapimod 0.085 | ispinesib -0.057

GMPR (UniProt P36959)
inactive: [1] 0.008 | crizotinib 0.015 | [2] 0.054 | [3] -0.048 | duvelisib 0.07 | gandotinib -0.03 | tozasertib -0.041 | [4] 0.048 | doramapimod -0.015 | ispinesib 0.049

GON7 (UniProt Q9BXV9)
inactive: [1] -0.168 | crizotinib 0.098 | [2] 0.108 | [3] -0.235 | duvelisib -0.025 | gandotinib 0.162 | tozasertib -0.04 | [4] -0.074 | doramapimod 0.015 | ispinesib 0.045

GMNN (UniProt O75496)
inactive: [1] -0.013 | crizotinib 0.021 | [2] -0.015 | [3] -0.018 | duvelisib 0.019 | gandotinib -0.04 | tozasertib -0.013 | [4] -0.041 | doramapimod -0.009 | ispinesib 0.002

GLO1 (UniProt Q04760)
inactive: [1] -0.007 | crizotinib 0.064 | [2] 0.019 | [3] -0.035 | duvelisib 0.04 | gandotinib 0.027 | tozasertib -0.024 | [4] -0.026 | doramapimod -0.043 | ispinesib 0.047

GLOD4 isoform 2 (UniProt Q9HC38)
inactive: [1] 0.06 | crizotinib -0.064 | [2] 0.074 | [3] -0.05 | duvelisib 0.035 | gandotinib -0.054 | tozasertib -0.008 | [4] 0.035 | doramapimod 0.006 | ispinesib -0.05

GMFB (UniProt P60983)
inactive: [1] -0.013 | crizotinib 0.056 | [2] 0.083 | [3] -0.065 | duvelisib 0.024 | gandotinib 0.067 | tozasertib -0.008 | [4] -0.013 | doramapimod -0.044 | ispinesib 0.107

GNA11 (UniProt P29992)
inactive: [1] 0.045 | crizotinib 0.093 | [2] 0.088 | [3] -0.043 | duvelisib 0.042 | gandotinib -0.04 | tozasertib -0.009 | [4] -0.006 | doramapimod -0.009 | ispinesib 0.037

GMIP (UniProt Q9P107)
inactive: [1] -0.045 | crizotinib -0.049 | [2] -0.061 | [3] 0.24 | duvelisib -0.046 | tozasertib 0.026 | [4] 0.067 | doramapimod -0.005 | ispinesib -0.026

GOLGA4 isoform 5 (UniProt Q13439)
inactive: [1] 0.088 | crizotinib 0.008 | [2] -0.096 | [3] 0.306 | duvelisib 0.04 | gandotinib 0.085 | tozasertib -0.025 | [4] 0.014 | doramapimod 0.023 | ispinesib -0.204

GOSR1 (UniProt O95249)
inactive: [1] -0.008 | crizotinib -0.136 | [2] 0.016 | [3] -0.095 | duvelisib -0.007 | gandotinib -0.041 | tozasertib 0.01 | [4] 0.08 | doramapimod 0.021 | ispinesib -0.074

Taken from the entries so far (two entries):
GLO1 (UniProt Q04760)
inactive: [1] -0.007 | crizotinib 0.064 | [2] 0.019 | [3] -0.035 | duvelisib 0.04 | gandotinib 0.027 | tozasertib -0.024 | [4] -0.026 | doramapimod -0.043 | ispinesib 0.047

GLOD4 isoform 2 (UniProt Q9HC38)
inactive: [1] 0.06 | crizotinib -0.064 | [2] 0.074 | [3] -0.05 | duvelisib 0.035 | gandotinib -0.054 | tozasertib -0.008 | [4] 0.035 | doramapimod 0.006 | ispinesib -0.05

Going on with the list.

GID8 (UniProt Q9NWU2)
inactive: [1] -0.022 | crizotinib 0.079 | [2] 0.158 | [3] -0.032 | duvelisib 0.099 | gandotinib -0.004 | tozasertib 0.06 | [4] 0.121 | doramapimod 0.051 | ispinesib 0.059

GINS3 (UniProt Q9BRX5)
inactive: [1] -0.008 | crizotinib 0.046 | [2] 0.036 | [3] -0.062 | duvelisib 0.039 | gandotinib -0.005 | tozasertib 0.004 | [4] 0.063 | doramapimod -0.019 | ispinesib 0.013

GNA13 (UniProt Q14344)
inactive: [1] 0.027 | crizotinib 0.118 | [2] 0.065 | [3] -0.111 | duvelisib 0.082 | gandotinib -0.063 | tozasertib -0.029 | [4] -0.006 | doramapimod 0.001 | ispinesib 0.064

GPR89A (UniProt B7ZAQ6)
inactive: [1] 0.044 | crizotinib 0.023 | [2] 0.028 | [3] -0.046 | duvelisib -0.018 | gandotinib 0.027 | tozasertib -0.022 | [4] -0.006 | doramapimod 0.003 | ispinesib -0.149

GRHPR (UniProt Q9UBQ7)
inactive: [1] 0.025 | crizotinib -0.021 | [2] 0.069 | [3] -0.048 | duvelisib 0.037 | gandotinib -0.007 | tozasertib 0.011 | [4] -0.005 | doramapimod 0.015 | ispinesib 0.08

GMPPB isoform 2 (UniProt Q9Y5P6)
inactive: [1] 0.007 | crizotinib 0.005 | [2] 0.026 | [3] -0.038 | duvelisib 0.004 | gandotinib 0.038 | tozasertib -0.055 | [4] 0.007 | doramapimod 0.007 | ispinesib -0.016

GOLGA3 (UniProt Q08378)
inactive: [1] 0.011 | crizotinib 0.168 | [2] 0.024 | [3] -0.024 | duvelisib 0.031 | gandotinib 0.062 | tozasertib 0.071 | [4] 0.012 | doramapimod 0.006 | ispinesib -0.047

GLMP (UniProt Q8WWB7)
inactive: [1] 0.049 | crizotinib 0.178 | [2] 0.017 | [3] 0.075 | duvelisib 0.001 | tozasertib 0.012 | [4] 0.058 | doramapimod -0.089 | ispinesib 0.079

GK (UniProt P32189)
inactive: [1] 0.029 | crizotinib 0.067 | [2] 0.013 | [3] -0.007 | duvelisib -0.021 | gandotinib -0.003 | tozasertib -0.009 | [4] 0.012 | doramapimod -0.02 | ispinesib 0.039

GIPC1 (UniProt O14908)
inactive: [1] 0.024 | crizotinib 0.057 | [2] 0.047 | [3] -0.002 | duvelisib 0.031 | gandotinib 0.015 | tozasertib 0.131 | [4] 0.045 | doramapimod 0.044 | ispinesib 0.022

GMFG (UniProt O60234)
inactive: [1] 0.005 | crizotinib 0.041 | [2] 0.01 | [3] -0.07 | duvelisib -0.012 | gandotinib -0.036 | tozasertib 0.059 | [4] -0.062 | doramapimod -0.015 | ispinesib 0.049
